In PubChem BioAssay AID192 (DTP/NCI, 2004):
The list is a part of this screen's results and no random one: it gathers tests that were run many times, whatever their T/C, doses with no T/C, and many T/C values between a quarter and a half above the control. Further doses and runs are listed elsewhere. T/C: endpoint of the treated group in % of that of the vehicle group. Some doses have a count of surviving animals in place of a T/C: the source files T/C as zero there, which appears to mark a toxic dose or a test without result, not a measured value. Some survivor counts are full or nearly so, which does not show that the dose was tolerated: survival well below the control is almost never listed, so the zero probably covers shortened survival too. Survivors were counted at the toxicity check, usually on the fifth day, unless a day is given; later deaths do not show. Schedule codes are those of the source, taken here to give the interval after Q, in days (D) or hours (H), and the number of doses after X. Some entries were tested several times; the values are given in rising order. For survival time, the PubChem record calls one and a half times the control and up active, and a quarter to a half above the control has no call in these data; cut-offs in other NCI protocols can differ. Some T/C values carry the count of animals alive at the toxicity check (mostly the fifth day); without a count, all were alive then.

Test system: BDF1 mice, B16 melanoma ip, median survival T/C
Assay: NCI In Vivo Anticancer Drug Screen. Data for tumor model B16 Melanoma (intraperitoneal) in B6D2F1 (BDF1) mice
Conditions: T/C endpoint: median survival time, higher T/C = longer survival
Procedure, shortened: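 Mice with transplantable tumors; drug vs vehicle groups; endpoint survival or tumor size; value = T/C.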

[1] = dose: 400.0 mg/kg/injection, schedule: Q01DX009 (ip), vehicle: Klucel (hydroxypropylcellulose) (HPC)
[2] = dose: 200.0 mg/kg/injection, schedule: Q01DX009 (ip), vehicle: Klucel (hydroxypropylcellulose) (HPC)
[3] = dose: 12.5 mg/kg/injection, schedule: Q01DX009 (ip), vehicle: Klucel (hydroxypropylcellulose) (HPC)
[4] = dose: 100.0 mg/kg/injection, schedule: Q01DX009 (ip), vehicle: saline with Tween-80
[5] = dose: 200.0 mg/kg/injection, schedule: Q01DX009 (ip), vehicle: saline with Tween-80
[6] = dose: 400.0 mg/kg/injection, schedule: Q01DX009 (ip), vehicle: saline with Tween-80
[7] = dose: 100.0 mg/kg/injection, schedule: Q01DX009 (ip), vehicle: saline
[8] = dose: 200.0 mg/kg/injection, schedule: Q01DX009 (ip), vehicle: saline
[9] = dose: 50.0 mg/kg/injection, schedule: Q01DX009 (ip), vehicle: saline with Tween-80

Cc1cc(=O)[nH]c2ccc(-c3ccc4[nH]c(=O)cc(C)c4c3)cc12
survivor count [1]: 9 of 10

Cc1cc2nc(-c3ccccc3O)[nH]c2cc1C
T/C [1]: 131 % of control | survivor count [1]: 6 of 10

CC[C@@H]1O[C@@H]([C@@H]2CC[C@](O)([C@]3(C)CC[C@@H]([C@@H](C)[C@@]4(O)CC[C@H](C)[C@@H](C[C@@]5(O)O[C@@H]([C@@H](C)[C@H](O)C[C@H]6CC[C@H](C)[C@@H]([C@@H](C)C(=O)O)O6)CC[C@@H]5C)O4)O3)O2)CC[C@@]1(C)O
survivor count (dose: 1.0 mg/kg/injection, schedule: Q01DX009 (ip), vehicle: saline): 6 of 10

Cc1nn(-c2ccccc2)c(N)c1C#N
survivor count [2]: 10 of 10 | survivor count [1]: 0 of 10

Cl/C(=N\Nc1ccccc1)c1ccccc1
survivor count [3]: 9 of 10

CCC(C)C(NC(=O)c1ccccc1)C(=O)O (centres undefined)
survivor count [4]: 10 of 10 | survivor count [5]: 10 of 10 | survivor count [6]: 9 of 10

O=C(NC(Cc1ccccc1)C(=O)O)OCC1c2ccccc2-c2ccccc21 (centres undefined)
survivor count [2]: 7 of 10

CC(C)C1(c2ccsc2)NC(=O)NC1=O (centres undefined)
survivor count [1]: 0 of 10

COc1cc2c(c(OC)c1OC)-c1ccc(OC)c(=O)cc1C(NC(=O)COc1ccccc1)CC2 (centres undefined)
T/C (dose: 0.63 mg/kg/injection, schedule: Q01DX009 (ip), vehicle: Klucel (hydroxypropylcellulose) (HPC)): 141 % of control | survivor count (dose: 5.0 mg/kg/injection, schedule: Q01DX009 (ip), vehicle: Klucel (hydroxypropylcellulose) (HPC)): 10 of 10

CCCC[S][Sn]([CH2]CCC)([CH2]CCC)[S]CCCC
survivor count (dose: 0.75 mg/kg/injection, schedule: Q01DX009 (ip), vehicle: saline with Tween-80): 9 of 10 | survivor count (dose: 1.5 mg/kg/injection, schedule: Q01DX009 (ip), vehicle: saline with Tween-80): 4 of 10 | survivor count (dose: 3.0 mg/kg/injection, schedule: Q01DX009 (ip), vehicle: saline with Tween-80): 6 of 10 | survivor count (dose: 6.0 mg/kg/injection, schedule: Q01DX009 (ip), vehicle: saline with Tween-80): 1 of 10 | survivor count (dose: 12.0 mg/kg/injection, schedule: Q01DX009 (ip), vehicle: saline with Tween-80): 0 of 10

Cc1cc(C)c(CN)cc1CN
survivor count [4]: 9 of 10

CC1(C)N=C(N)N=C(N)N1c1cccc(CCCCc2cccc(N)c2)c1
survivor count (dose: 6.25 mg/kg/injection, schedule: Q01DX009 (ip), vehicle: Klucel (hydroxypropylcellulose) (HPC)): 10 of 10 | survivor count [3]: 10 of 10 | survivor count (dose: 25.0 mg/kg/injection, schedule: Q01DX009 (ip), vehicle: Klucel (hydroxypropylcellulose) (HPC)): 10 of 10 | survivor count (dose: 50.0 mg/kg/injection, schedule: Q01DX009 (ip), vehicle: Klucel (hydroxypropylcellulose) (HPC)): 10 of 10

CCCOP(OCCC)OCCC
survivor count [7]: 10 of 10 | survivor count [8]: 10 of 10

Cc1ccc(C(=O)NCCCOc2ccc(N3C(N)=NC(N)=NC3(C)C)cc2Cl)cc1S(=O)(=O)F
survivor count (dose: 50.0 mg/kg/injection, schedule: Q01DX009 (ip), vehicle: saline): 10 of 10 | survivor count [7]: 0 of 10 | survivor count [8]: 0 of 10

CC/C(=C(/CC)c1ccc(O)cc1)c1ccc(O)cc1
survivor count [9]: 6 of 6 | survivor count [4]: 4 of 6

CC(=O)OCC1OC(n2ccc(N)nc2=O)C(OC(C)=O)C1OC(C)=O (centres undefined)
survivor count [8]: 10 of 10 | survivor count (dose: 400.0 mg/kg/injection, schedule: Q01DX009 (ip), vehicle: saline): 10 of 10

COC(=O)[C@H]1[C@H]2C[C@@H]3c4[nH]c5ccccc5c4CCN3C[C@H]2C[C@@H](OC(=O)c2cc(OC)c(OC)c(OC)c2)[C@@H]1OC
survivor count (dose: 0.11 mg/kg/injection, schedule: Q01DX009 (ip), vehicle: Klucel (hydroxypropylcellulose) (HPC)): 10 of 10 | survivor count (dose: 0.23 mg/kg/injection, schedule: Q01DX009 (ip), vehicle: Klucel (hydroxypropylcellulose) (HPC)): 10 of 10 | survivor count (dose: 0.46 mg/kg/injection, schedule: Q01DX009 (ip), vehicle: Klucel (hydroxypropylcellulose) (HPC)): 9 of 10 | survivor count (dose: 0.93 mg/kg/injection, schedule: Q01DX009 (ip), vehicle: Klucel (hydroxypropylcellulose) (HPC)): 10 of 10 | survivor count (dose: 1.87 mg/kg/injection, schedule: Q01DX009 (ip), vehicle: Klucel (hydroxypropylcellulose) (HPC)): 10 of 10

NN(CC1=COc2ccccc2O1)Cc1ccccc1
survivor count [2]: 9 of 10 | survivor count (dose: 400.0 mg/kg/injection, schedule: Q04DX003 (ip), vehicle: Klucel (hydroxypropylcellulose) (HPC)): 10 of 10

COc1ccccc1NC(=O)Nc1ccc(Nc2ccccc2)cc1
survivor count (dose: 400.0 mg/kg/injection, schedule: Q01DX009 (ip), vehicle: gum acacia): 8 of 10

Cc1cc(NCCCCCCCNc2cc(C)nc3cc(N)ccc23)c2ccc(N)cc2n1
survivor count (dose: 25.0 mg/kg/injection, schedule: Q01DX009 (ip), vehicle: saline with Tween-80): 8 of 10

CC(=O)NC1c2cc(Cl)ccc2-c2c(Cl)cc(Cl)cc21 (centres undefined)
survivor count [5]: 6 of 6

COC1/C=C\C=C(/C)C(=O)NC2=CC(=O)C(=O)C(=C2O)CC(C)CC(OC)C(O)C(C)/C=C(\C)C1OC(N)=O (centres undefined)
survivor count (dose: 12.5 mg/kg/injection, schedule: Q01DX005 (ip), vehicle: other): 3 of 6 | survivor count (dose: 25.0 mg/kg/injection, schedule: Q01DX005 (ip), vehicle: other): 2 of 6 | survivor count (dose: 50.0 mg/kg/injection, schedule: Q01DX005 (ip), vehicle: other): 0 of 6 | survivor count (dose: 100.0 mg/kg/injection, schedule: Q01DX005 (ip), vehicle: other): 0 of 6 | survivor count (dose: 200.0 mg/kg/injection, schedule: Q01DX005 (ip), vehicle: other): 0 of 6

O=C(O)c1c(O)c(-c2ccccc2)nc2ccccc12
survivor count [2]: 10 of 10

O=C(CC(NC(=O)OCc1ccccc1)C(=O)O)OCc1ccccc1 (centres undefined)
survivor count [1]: 7 of 10

C[n+]1ccc(C#N)c2ccccc21
survivor count (dose: 15.0 mg/kg/injection, schedule: Q01DX009 (ip), vehicle: saline): 6 of 6

O=S(=O)(O)O.[NH-]CC1(C[NH-])CCCCC1.[Pt+2]
T/C (dose: 4.0 mg/kg/injection, schedule: Q04DX003 (ip), vehicle: dextrose): 131 % of control | T/C (dose: 12.0 mg/kg/injection, schedule: Q04DX003 (ip), vehicle: dextrose): 145 % of control [9 of 10 alive on day 10]

CC(N)(Cc1ccc(O)c(O)c1)C(=O)O (centres undefined)
survivor count (dose: 25.0 mg/kg/injection, schedule: Q01DX009 (ip), vehicle: saline): 10 of 10

O=C(O)C1CC1.[Ag]
survivor count (dose: 25.0 mg/kg/injection, schedule: Q01DX009 (ip), vehicle: water): 4 of 10

OCCN1CCN(CCCN2c3ccccc3CCc3ccccc32)CC1
survivor count (dose: 125.0 mg/kg/injection, schedule: Q01DX009 (ip), vehicle: saline): 3 of 10 | survivor count (dose: 250.0 mg/kg/injection, schedule: Q01DX009 (ip), vehicle: saline): 0 of 10

CN(C)N=Nc1c(Cl)cc(Cl)cc1C(N)=O
T/C [9]: 128 % of control

CC(C)C(=O)[O][Sn]([CH3])([CH3])[CH3]
survivor count (dose: 0.75 mg/kg/injection, schedule: Q01DX009 (ip), vehicle: saline): 9 of 10 | survivor count (dose: 1.5 mg/kg/injection, schedule: Q01DX009 (ip), vehicle: saline): 6 of 10 | survivor count (dose: 3.0 mg/kg/injection, schedule: Q01DX009 (ip), vehicle: saline): 0 of 10

c1cc2cc3c(cc2c2c1CC1c4cc5c(cc4CCN1C2)OCO5)OCO3 (centres undefined)
survivor count [1]: 10 of 10

CCCCN(CCCC)CCNc1ccc(Cl)c2oc3cc(C)ccc3c(=O)c12
survivor count [9]: 10 of 10 | survivor count (dose: 100.0 mg/kg/injection, schedule: Q04DX003 (ip), vehicle: saline with Tween-80): 10 of 10 | survivor count (dose: 200.0 mg/kg/injection, schedule: Q04DX003 (ip), vehicle: saline with Tween-80): 10 of 10 | survivor count (dose: 400.0 mg/kg/injection, schedule: Q04DX003 (ip), vehicle: saline with Tween-80): 9 of 10

O=C1NC(=O)C(=Cc2cc3c(cc2Br)OCO3)C(=O)N1
survivor count [4]: 9 of 10 and 10 of 10 | survivor count [5]: 9 of 10 | survivor count [6]: 3 of 10
